Measured values from PubChem BioAssay AID588590 (National Center for Advancing Translational Sciences (NCATS), 2011).
About 4,000 (1%) of roughly 390,000 compounds were called active. The inconclusive results got no clear call from the source; some entries with a clear call stand among them for comparison. The call rests on the fitted dose curve; in most records, active means well fitted inhibition curve with a large enough effect; inconclusive means small, poorly fitted or top-dose-only effect, or another doubt; inactive means no such curve, though single readings can be large or run the other way. A potency beside an inconclusive call is a rough fit, not a confirmed value.

Chains of the proteins cited; added tags and fusions are not shown. Lines headed by an entry give the natural chain unless they say otherwise; changes in a name come on top.
UniProt Q9UNA4: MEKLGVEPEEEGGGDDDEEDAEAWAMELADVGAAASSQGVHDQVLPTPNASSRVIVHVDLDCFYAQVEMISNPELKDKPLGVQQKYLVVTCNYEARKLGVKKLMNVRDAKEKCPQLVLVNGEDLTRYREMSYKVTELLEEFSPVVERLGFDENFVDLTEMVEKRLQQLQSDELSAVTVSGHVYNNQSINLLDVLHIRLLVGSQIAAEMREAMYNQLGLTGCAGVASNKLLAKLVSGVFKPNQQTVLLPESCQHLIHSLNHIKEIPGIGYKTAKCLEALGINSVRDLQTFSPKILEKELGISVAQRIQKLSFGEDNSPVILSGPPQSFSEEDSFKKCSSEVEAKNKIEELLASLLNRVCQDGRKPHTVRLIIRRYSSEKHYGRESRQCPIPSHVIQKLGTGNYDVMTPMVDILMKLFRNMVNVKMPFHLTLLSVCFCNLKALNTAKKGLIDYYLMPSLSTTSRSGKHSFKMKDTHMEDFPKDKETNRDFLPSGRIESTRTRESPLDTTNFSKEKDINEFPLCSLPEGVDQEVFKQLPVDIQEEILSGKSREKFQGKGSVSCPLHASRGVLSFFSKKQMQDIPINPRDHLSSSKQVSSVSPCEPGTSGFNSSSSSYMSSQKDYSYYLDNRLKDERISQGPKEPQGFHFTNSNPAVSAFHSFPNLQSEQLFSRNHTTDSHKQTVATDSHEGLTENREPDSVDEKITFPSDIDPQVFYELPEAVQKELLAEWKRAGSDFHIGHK

Each molecule was assayed against DNA polymerase iota (Homo sapiens) (UniProt Q9UNA4) (assay: qHTS for Inhibitors of Polymerase Iota). Settings: Pol iota fluorescent replication assay, 10 min; series mostly up to 115 µM.
How it was run: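 Fluorescent replication assay read twice, at 0 min and 10 min after adding 50 nM (final) substrate. Enzyme (10 nM) and compounds were first incubated 15 min at room temperature; enzyme-free buffer wells were negative controls.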
Potency means the concentration at half of the fitted maximal effect.

Row | Compound | Potency
1 | COC(=O)Nc1nc(Sc2ncc(C(F)(F)F)cc2Cl)n[nH]1 | inconclusive: 39.8 µM [inhibitor, partial curve]
2 | Cc1ccc(NC(=O)c2ccc(CSc3nnc(C)s3)cc2)cc1 | inconclusive: 89.1 µM [inhibitor, single point]
3 | CSC1CCCCC1(O)CSc1nc2c(cc1C#N)CCCC2 (centres undefined) | inactive
4 | O=S(=O)(Nc1ccccn1)c1cccs1 | inconclusive: 100 µM [inhibitor, single point]
5 | COc1ccccc1NC(=O)Cc1nnc(SCC(=O)NC2CCCCC2)n1C | inactive
6 | O=C1COc2ccc(C(=O)/C=C/c3ccccc3)cc2N1 | inconclusive: 14.1 µM [inhibitor, full curve, poor fit]
7 | COc1c(C)cc(Br)cc1C(=O)Nc1cccc(NC(=O)c2ccco2)c1 | inactive
8 | O=C(OCc1nnc(-c2ccccc2)o1)c1ccc([N+](=O)[O-])s1 | inconclusive: 56.2 µM [inhibitor, partial curve, poor fit]
9 | CCOc1cc(/C=C2/SC(=S)NC2=O)ccc1OC(=O)c1ccco1 | inconclusive: 15.8 µM [inhibitor, full curve, poor fit]
10 | CNS(=O)(=O)c1cccc(C(=O)OCC(=O)c2ccc[nH]2)c1 | active: 39.8 µM
11 | Cc1nc2ccccc2n1CC(O)Cn1c2ccccc2c2ccccc21 (centres undefined) | active: 100 µM
12 | O=C(CNC(=O)c1ccccc1Cl)OCc1cc(=O)n2nc(C3CC3)sc2n1 | inactive
13 | Cc1ccc(NC(=O)C(c2ccccc2)N2CCN(C(=O)c3ccco3)CC2)cc1Cl (centres undefined) | inconclusive: 20 µM [inhibitor, partial curve]
14 | O=C(C1CCN(S(=O)(=O)c2cc(Cl)ccc2Cl)CC1)N1CCOCC1 | inconclusive: 89.1 µM [inhibitor, single point]
15 | Oc1cccc(/C=N/N(Cc2ccccc2)c2ccccc2)c1 | inactive
16 | CSc1ccccc1C(=O)Nc1ncn[nH]1 | inactive
17 | O=C(CSc1nnc(-c2cnccn2)n1Cc1ccco1)c1ccc(Cl)c(Cl)c1 | inconclusive: 17.8 µM [inhibitor, full curve]
18 | Cc1sc2ccccc2[n+]1CCC(C)S(=O)(=O)[O-] (centres undefined) | inconclusive: 14.1 µM [inhibitor, partial curve, poor fit]
19 | CC1CCc2c(sc3nc(-c4cc5ccccc5oc4=O)nc(Cl)c23)C1 (centres undefined) | inactive
20 | Cc1ncc(C[n+]2ccc(C)c(C)c2)c(N)n1 | inconclusive: 39.8 µM [inhibitor, single point]
21 | Cc1ccc(NC(=O)c2ccc3c(c2)NC(=O)CS3)nc1 | inconclusive: 20 µM [inhibitor, single point]
22 | CCCCn1c(N)c(N(CCC(C)C)C(=O)c2ccc([N+](=O)[O-])s2)c(=O)[nH]c1=O | inconclusive: 28.2 µM [inhibitor, partial curve, poor fit]
23 | CC(C)CSC1=NSC2=NC(=O)/C(=C\c3ccccc3)C(=N)N12 | inconclusive: 56.2 µM [inhibitor, partial curve, poor fit]

Three structures already listed, arranged by SMILES length, ascending:
Row | Compound | Potency
20 | Cc1ncc(C[n+]2ccc(C)c(C)c2)c(N)n1 | inconclusive: 39.8 µM [inhibitor, single point]
2 | Cc1ccc(NC(=O)c2ccc(CSc3nnc(C)s3)cc2)cc1 | inconclusive: 89.1 µM [inhibitor, single point]
22 | CCCCn1c(N)c(N(CCC(C)C)C(=O)c2ccc([N+](=O)[O-])s2)c(=O)[nH]c1=O | inconclusive: 28.2 µM [inhibitor, partial curve, poor fit]

Next part

Row | Compound | Potency
24 | CCOc1cc(C(c2c(C)[nH][nH]c2=O)c2c(C)[nH][nH]c2=O)cc(Cl)c1O | active: 25.1 µM
25 | CN1CCC(=O)N(CCOc2ccccc2)CC1 | inconclusive: 0.631 µM [inhibitor, full curve, poor fit]
26 | COc1ccc(-c2nnc(SCC(=O)/C(C#N)=C(\C)N)o2)cc1 | inconclusive: 44.7 µM [inhibitor, partial curve, poor fit]
27 | CC(C)(C)[C@H]1C=C(C(=O)NCc2ccccc2)O[C@@H](OCCCCO)C1 | inconclusive: 79.4 µM [inhibitor, single point]
28 | Cc1sc2nc(CSC(C)C(=O)NC3(C#N)CCCCC3)[nH]c(=O)c2c1C (centres undefined) | inconclusive: 31.6 µM [inhibitor, single point]
29 | Cc1ccc(-c2cc(C(=O)N/N=C/c3ccc([N+](=O)[O-])o3)c3ccccc3n2)o1 | inconclusive: 25.1 µM [inhibitor, full curve]
30 | CN(C)c1ccc(N=Nc2ccccc2C(=O)O)cc1 | inactive
31 | CC(C)CC(C(=O)Nc1oc(-c2ccccc2)c(-c2ccccc2)c1C#N)N1C(=O)c2ccccc2C1=O (centres undefined) | inconclusive: 39.8 µM [inhibitor, single point]
32 | CC(C)(C)c1c(Cl)c(O)c(-c2ccccc2)c(=O)n1-c1ccccc1 | active: 1.12 µM
33 | c1ccc(-c2ccc(-c3cn4c(n3)CCC4)cc2)cc1 | inconclusive: 7.94 µM [inhibitor, full curve, poor fit]
34 | CCOC(=O)N1CCN(c2nc(-c3ccc(Cl)cc3)cs2)CC1 | inconclusive: 79.4 µM [inhibitor, partial curve]
35 | CC[n+]1ccnc2ccccc21 | inactive
36 | Cc1cccc(-n2cnc(C(=O)O)c2)n1 | inconclusive: 10 µM [inhibitor, partial curve, poor fit]
37 | COc1ccc(NC(=O)Cn2c(=O)oc3cc(S(=O)(=O)N4CCCC4)ccc32)c(OC)c1 | inconclusive: 39.8 µM [inhibitor, single point]
38 | CCCN1CCCc2cc(CN)ccc21 | active: 3.16 µM
39 | O=[N+]([O-])/C=C/c1ccc2c(ccn2Cc2ccccc2)c1 | inconclusive: 10 µM [inhibitor, partial curve]
40 | COc1cccc(-c2ncc3ccccc3c2COC(=O)c2ccc(F)cc2)c1 | inactive
41 | COc1ccc2c(c1)-c1nc(/N=C/c3ccc(O)c(OC)c3)sc1CC2 | inactive
42 | Cc1oc(C)c(S(=O)(=O)NCc2cccs2)c1C(=O)O | inconclusive: 70.8 µM [inhibitor, partial curve]
43 | Cc1ccc(N2C(=O)CS(=O)(=O)C23C(=O)N(Cc2ccccc2F)c2ccccc23)cc1Cl (centres undefined) | inactive
44 | Cc1ccc(/C=N/NC(=O)CSc2nc3ccccc3[nH]2)o1 | inconclusive: 44.7 µM [inhibitor, partial curve, poor fit]
45 | CC(O)CN(Cc1ccc(Cl)cc1)CC(C)O (centres undefined) | inconclusive: 89.1 µM [inhibitor, single point]
46 | Cc1ccc(S(=O)(=O)CCC(=O)OCC(=O)NCCc2ccc(S(N)(=O)=O)cc2)cc1 | inconclusive: 28.2 µM [inhibitor, partial curve]

Row | Compound | Potency
47 | Cn1c(=O)c2nc(SCCO)n(C)c2n(C)c1=O | inactive
48 | CC1(C)CC(=O)C=C(c2ccc(I)cc2)C1 | inconclusive: 100 µM [inhibitor, single point]
49 | COc1ccc2c(c1)c(=O)c(C(=O)c1ccc(C)cc1)cn2Cc1ccccc1F | inactive
50 | O=C(CSc1nc(-c2ccccc2Cl)ns1)c1ccc(Cl)cc1 | inconclusive: 79.4 µM [inhibitor, partial curve, poor fit]
51 | O=C(NC(=S)Nc1ccc2oc(=O)ccc2c1)c1cccc(F)c1 | inconclusive: 28.2 µM [inhibitor, partial curve]
52 | Cc1ccc(-c2ccc(C(=O)O)o2)cc1Cl | inactive
53 | COC(=O)c1ccc(Cl)cc1NC(=O)Nc1nnc(N(C)Cc2ccccc2)s1 | inconclusive: 89.1 µM [inhibitor, single point]
54 | COc1ccccc1NC(=O)c1oc2ccccc2c1NC(=O)c1ccc(S(=O)(=O)N(C)C)cc1 | inactive
55 | CC[C@]12c3[nH]c4cc(CCC(=O)N(C)C)ccc4c3CCN1C(=O)[C@@H](CC(=O)NCCC1=CCCCC1)C[C@@H]2C(=O)N1CCN(C(=O)c2ccco2)CC1 | inactive
56 | O=C(Cc1cccs1)N1CCN(c2ccccn2)CC1 | inconclusive: 0.631 µM [inhibitor, full curve, poor fit]
57 | CNC(=O)c1ccsc1NC(=O)c1sc2ccccc2c1Cl | inconclusive: 44.7 µM [inhibitor, single point]
58 | CCc1nc(Nc2ccc(O)cc2)c2oc3ccccc3c2n1 | inconclusive: 10 µM [inhibitor, partial curve, poor fit]
59 | Cc1ccc(N2C(=O)c3oc4cc(C)c(C)cc4c(=O)c3C2c2cccc(O)c2)nc1 (centres undefined) | inactive
60 | C=CCOC(=O)c1ccc(N2CCN(c3ccccc3)CC2)nc1 | inconclusive: 56.2 µM [inhibitor, partial curve, poor fit]
61 | O=C1NCCN(CC2CCN(CCc3ccc(Cl)c(Cl)c3)CC2)C1=O | inactive
62 | Cc1ccc(C(=O)O)cc1NC(=O)CSc1ncnc2sc3c(c12)CCC3 | inconclusive: 50.1 µM [inhibitor, partial curve]
63 | COc1ccc(C(=O)c2c3ccc([N+](=O)[O-])cc3[n+]([O-])n2CCCC(N)=O)cc1 | inconclusive: 11.2 µM [inhibitor, partial curve]
64 | Cc1cccc2cc3c(nc12)SC(=NCC1CCCO1)N(Cc1ccco1)C3 (centres undefined) | inconclusive: 11.2 µM [inhibitor, partial curve, poor fit]
65 | C=CCNc1nc(=S)[nH]c2cc(OC)c(OC)cc12 | inconclusive: 89.1 µM [inhibitor, single point]
67 | CC(=O)N1CC=C2C(C#N)=C(N)C(C#N)(C#N)C(C)C2C1 (centres undefined) | inconclusive: 39.8 µM [inhibitor, single point]
68 | COc1ccc(NC(=O)Oc2cc(C)ccc2C(C)C)cc1 | inconclusive: 89.1 µM [inhibitor, partial curve, poor fit]
69 | CC(=O)c1ccc(NC(=O)C2CCCN(S(=O)(=O)c3ccc(-n4cnnn4)cc3)C2)cc1 (centres undefined) | inconclusive: 3.16 µM [inhibitor, full curve, poor fit]

Not a retest: entries from further up.
Row | Compound | Potency
47 | Cn1c(=O)c2nc(SCCO)n(C)c2n(C)c1=O | inactive
48 | CC1(C)CC(=O)C=C(c2ccc(I)cc2)C1 | inconclusive: 100 µM [inhibitor, single point]
